Values quoted from earlier work as cited in patent US20100093661A1, “COMPOSITION COMPRISING CHITOSAN AND AN ACIDIC DRUG FOR ORAL CONTROLLED RELEASE” (The Jordanian Pharmaceutical Manufacturing Co., priority 2007, published 2010).

Conditions: background description of the drug; cited from earlier work

Q: For `CC(C)Cc1ccc(C(C)C(=O)O)cc1` (stereo not shown) [Ibuprofen], which water solubility is on record?
A: practically insoluble in water
